The values that follow come from PubChem BioAssay AID328 (DTP/NCI, 2004).

The list does not hold the whole screen: it gathers tests that were run many times, whatever their T/C, doses with no T/C, and many T/C values between a quarter and a half above the control. Further doses and runs are listed elsewhere. T/C is the treated group as % of the vehicle group. Some doses have a count of surviving animals in place of a T/C: the source holds a T/C of zero for them, seemingly a mark for toxic or unscored doses. Some survivor counts are full or nearly so, which does not show that the dose was tolerated: the source hardly ever lists a survival T/C far under the control, and the zero likely stands for such cases as well. Survivors were counted at the toxicity check, usually on the fifth day, unless a day is given; later deaths do not show. Schedules are NCI's codes, taken here to give the interval after Q, in days (D) or hours (H), and the number of doses after X. Some entries hold several experiments; the results are listed from low to high. For survival time, this PubChem deposit counts one and a half times the control or more as active, and values a quarter to a half above the control carry no call in these data; other NCI protocols may use other cut-offs. Some T/C values are followed by the survivors on the day toxicity was checked, most often the fifth; without a count, all were alive then. Marks such as (2×) say how often a value occurs here.

This assay deals with BDF1 mice, P388 leukemia ip, median survival T/C. In words: NCI In Vivo Anticancer Drug Screen. Data for tumor model P388 Leukemia (intraperitoneal) in B6D2F1 (BDF1) mice. The conditions noted are these: T/C endpoint: median survival time, vehicle: Klucel (hydroxypropylcellulose) (HPC), higher T/C = longer survival. The method, boiled down:
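Antitumour effect was judged in vivo: survival in drug-treated mice, normalised to that of vehicle-dosed controls, gives the reported T/C.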

The mark [1] stands for this setting: dose: 50.0 mg/kg/injection, schedule: Q01DX009 (ip).
Setting [2] is: dose: 100.0 mg/kg/injection, schedule: Q01DX009 (ip).

For the molecule `CN(Cc1cnc2nc(N)nc(N)c2n1)c1c(Cl)cc(C(=O)NC(CCC(=O)O)C(=O)O)cc1Cl` (stereo not drawn), the T/C is 95, 110, 111, 118, 120, 122 (2×), 123, 124, 125 (2×), 128 (2×), 129, 130, 132, 133, 135, 136, 138, 145, 147 (2×), 151, 152, 153, 159, 160, 167 % of control (dose: 50.0 mg/kg/injection, schedule: Q01DX001 (ip), evaluated on day 30); 129 and 133 % of control (dose: 50.0 mg/kg/injection, schedule: Q01DX001 (ip), evaluated on day 35); 106, 113, 135, 144, 150, 151, 153, 154, 157, 162, 164, 166, 170, 174 (2×), 177, 183 (2×), 188, 194, 195, 196, 205, 206, 207, 211, 221, 228, 229, 233, 241, 250, 254, 256 % of control (dose: 50.0 mg/kg/injection, schedule: Q01DX005 (ip), evaluated on day 30); 173 % of control (dose: 50.0 mg/kg/injection, schedule: Q01DX005 (ip), evaluated on day 35); 100, 106 (2×), 132, 135, 141, 146, 175, 180, 184, 186, 193, 195, 200, 204, 207, 210, 223, 225 (2×), 226, 232, 239, 241, 250, 253, 255, 258, 263 (2×), 264, 267 (2×), 283 % of control under setting [1]; 111, 121, 125, 126, 127, 128, 129, 130 (2×), 132, 136, 140, 141, 142, 144, 145, 146, 147, 149, 150, 153, 154, 157, 159 (2×), 160, 163 (2×), 164, 173, 188, 291 % of control (dose: 50.0 mg/kg/injection, schedule: Q04DX002 (ip), evaluated on day 30). The T/C runs as follows: (dose: 50.0 mg/kg/injection, schedule: Q04DX002 (ip), evaluated on day 35) 155 % of control; (dose: 50.0 mg/kg/injection, schedule: Q04DX003 (ip), evaluated on day 30) 117 (2×), 126, 128, 129, 136 (2×), 140, 141, 144 (3×), 148, 151 (2×), 152, 156 (2×), 160, 162, 163, 164, 170, 172, 175 (3×), 180, 184 (2×), 194, 197 [2 of 3 alive], 202 % of control; (dose: 50.0 mg/kg/injection, schedule: Q04DX003 (ip), evaluated on day 35) 165 and 220 % of control; (dose: 100.0 mg/kg/injection, schedule: Q01DX001 (ip), evaluated on day 30) 100, 104, 114, 117, 118 (2×), 124, 133, 134, 136 (2×), 138 (2×), 140 (2×), 142, 145, 151 (2×), 154, 155, 156, 158, 163, 167, 172, 176 (2×), 188 % of control; (dose: 100.0 mg/kg/injection, schedule: Q01DX001 (ip), evaluated on day 35) 125 and 155 % of control; (dose: 100.0 mg/kg/injection, schedule: Q01DX005 (ip), evaluated on day 30) 123, 151, 154, 157, 160, 162 [4 of 6 alive], 176 (2×), 176 [2 of 3 alive], 184, 186, 187, 190 [5 of 6 alive], 194, 200, 201, 213, 215, 217, 219, 227, 230, 231, 236, 240, 241, 242 [5 of 6 alive], 247, 254 [5 of 6 alive], 277 % of control. Further, the T/C is, setting by setting: (dose: 100.0 mg/kg/injection, schedule: Q01DX005 (ip), evaluated on day 35) 182 % of control; under setting [2], 87, 88, 89, 91, 92, 108, 109, 112, 115, 116, 120, 140, 186, 200, 203, 209, 222, 225, 226, 230, 241 (2×), 243 (2×), 255, 264, 277 % of control; (dose: 100.0 mg/kg/injection, schedule: Q04DX002 (ip), evaluated on day 30) 116, 129, 130, 134, 139 (2×), 147, 151, 153, 154, 155, 156, 158, 160, 163 (2×), 166, 168 (2×), 172, 174, 177, 179, 182, 186, 188, 193 (2×), 200, 205, 208, 211, 228 % of control; (dose: 100.0 mg/kg/injection, schedule: Q04DX002 (ip), evaluated on day 35) 163 % of control; (dose: 100.0 mg/kg/injection, schedule: Q04DX003 (ip), evaluated on day 30) 109, 119, 138, 146, 149, 154 [5 of 6 alive], 156 (3×), 160, 161 (2×), 161 [5 of 6 alive], 163, 169 [2 of 3 alive], 172 (2×), 173, 174, 180, 182, 184, 190, 191, 194, 197 (3×), 204, 211, 216 [2 of 2 alive], 227, 232, 247 % of control. In addition, the survivor count (dose: 50.0 mg/kg/injection, schedule: Q01DX001 (ip)) is given as 3 of 3; the survivor count under setting [1] was 3 of 6; the survivor count (dose: 50.0 mg/kg/injection, schedule: Q04DX003 (ip)) is listed as 2 of 3; the survivor count (dose: 100.0 mg/kg/injection, schedule: Q01DX001 (ip)) is 3 of 3; the survivor count (dose: 100.0 mg/kg/injection, schedule: Q01DX005 (ip)) was 5 of 6 and 3 of 3; the survivor count under setting [2] was 4 of 6, 3 of 3, 6 of 6.
